Publication doi:10.1101/2025.03.06.641798
Results are given in words; binding and its absence hold for the method and conditions named. Binding seen in cells or lysates may run through a third protein.

Amino acid sequences for entries named in this document (tags omitted).
UniProt P03407: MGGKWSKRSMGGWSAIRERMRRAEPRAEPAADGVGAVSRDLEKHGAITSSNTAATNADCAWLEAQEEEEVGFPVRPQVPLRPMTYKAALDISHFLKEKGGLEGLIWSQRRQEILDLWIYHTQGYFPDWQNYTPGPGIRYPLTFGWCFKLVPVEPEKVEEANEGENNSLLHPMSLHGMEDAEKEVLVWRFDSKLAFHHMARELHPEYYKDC

Target: HIV-1 Negative factor (Nef) of SF2 with an HA-tag (HIV-1 (SF2)) (UniProt P03407)
Assay: co-IP; FLAG-tagged Ser5 or HA-tagged Nef or glycoGag expressed or co-expressed in HEK293T cells; RIPA lysate; anti-FLAG M2 magnetic beads or anti-HA Affinity Gel; endogenous RETREG1 detected by WB

Reticulophagy regulator 1 (RETREG1), endogenous (from UniProt Q9H6L5-1 1-497)
binding: no binding
